Laboratory results taken from paper PMC12154174.
These are yes or no findings as the source states them, for the method shown. In cells and extracts the contact can be indirect. A yes stands for co-enrichment or nearness to the bait. Other partners may have been found.

Sequences of proteins named here, by UniProt entry; tags and fusion partners are left off.
UniProt O95613: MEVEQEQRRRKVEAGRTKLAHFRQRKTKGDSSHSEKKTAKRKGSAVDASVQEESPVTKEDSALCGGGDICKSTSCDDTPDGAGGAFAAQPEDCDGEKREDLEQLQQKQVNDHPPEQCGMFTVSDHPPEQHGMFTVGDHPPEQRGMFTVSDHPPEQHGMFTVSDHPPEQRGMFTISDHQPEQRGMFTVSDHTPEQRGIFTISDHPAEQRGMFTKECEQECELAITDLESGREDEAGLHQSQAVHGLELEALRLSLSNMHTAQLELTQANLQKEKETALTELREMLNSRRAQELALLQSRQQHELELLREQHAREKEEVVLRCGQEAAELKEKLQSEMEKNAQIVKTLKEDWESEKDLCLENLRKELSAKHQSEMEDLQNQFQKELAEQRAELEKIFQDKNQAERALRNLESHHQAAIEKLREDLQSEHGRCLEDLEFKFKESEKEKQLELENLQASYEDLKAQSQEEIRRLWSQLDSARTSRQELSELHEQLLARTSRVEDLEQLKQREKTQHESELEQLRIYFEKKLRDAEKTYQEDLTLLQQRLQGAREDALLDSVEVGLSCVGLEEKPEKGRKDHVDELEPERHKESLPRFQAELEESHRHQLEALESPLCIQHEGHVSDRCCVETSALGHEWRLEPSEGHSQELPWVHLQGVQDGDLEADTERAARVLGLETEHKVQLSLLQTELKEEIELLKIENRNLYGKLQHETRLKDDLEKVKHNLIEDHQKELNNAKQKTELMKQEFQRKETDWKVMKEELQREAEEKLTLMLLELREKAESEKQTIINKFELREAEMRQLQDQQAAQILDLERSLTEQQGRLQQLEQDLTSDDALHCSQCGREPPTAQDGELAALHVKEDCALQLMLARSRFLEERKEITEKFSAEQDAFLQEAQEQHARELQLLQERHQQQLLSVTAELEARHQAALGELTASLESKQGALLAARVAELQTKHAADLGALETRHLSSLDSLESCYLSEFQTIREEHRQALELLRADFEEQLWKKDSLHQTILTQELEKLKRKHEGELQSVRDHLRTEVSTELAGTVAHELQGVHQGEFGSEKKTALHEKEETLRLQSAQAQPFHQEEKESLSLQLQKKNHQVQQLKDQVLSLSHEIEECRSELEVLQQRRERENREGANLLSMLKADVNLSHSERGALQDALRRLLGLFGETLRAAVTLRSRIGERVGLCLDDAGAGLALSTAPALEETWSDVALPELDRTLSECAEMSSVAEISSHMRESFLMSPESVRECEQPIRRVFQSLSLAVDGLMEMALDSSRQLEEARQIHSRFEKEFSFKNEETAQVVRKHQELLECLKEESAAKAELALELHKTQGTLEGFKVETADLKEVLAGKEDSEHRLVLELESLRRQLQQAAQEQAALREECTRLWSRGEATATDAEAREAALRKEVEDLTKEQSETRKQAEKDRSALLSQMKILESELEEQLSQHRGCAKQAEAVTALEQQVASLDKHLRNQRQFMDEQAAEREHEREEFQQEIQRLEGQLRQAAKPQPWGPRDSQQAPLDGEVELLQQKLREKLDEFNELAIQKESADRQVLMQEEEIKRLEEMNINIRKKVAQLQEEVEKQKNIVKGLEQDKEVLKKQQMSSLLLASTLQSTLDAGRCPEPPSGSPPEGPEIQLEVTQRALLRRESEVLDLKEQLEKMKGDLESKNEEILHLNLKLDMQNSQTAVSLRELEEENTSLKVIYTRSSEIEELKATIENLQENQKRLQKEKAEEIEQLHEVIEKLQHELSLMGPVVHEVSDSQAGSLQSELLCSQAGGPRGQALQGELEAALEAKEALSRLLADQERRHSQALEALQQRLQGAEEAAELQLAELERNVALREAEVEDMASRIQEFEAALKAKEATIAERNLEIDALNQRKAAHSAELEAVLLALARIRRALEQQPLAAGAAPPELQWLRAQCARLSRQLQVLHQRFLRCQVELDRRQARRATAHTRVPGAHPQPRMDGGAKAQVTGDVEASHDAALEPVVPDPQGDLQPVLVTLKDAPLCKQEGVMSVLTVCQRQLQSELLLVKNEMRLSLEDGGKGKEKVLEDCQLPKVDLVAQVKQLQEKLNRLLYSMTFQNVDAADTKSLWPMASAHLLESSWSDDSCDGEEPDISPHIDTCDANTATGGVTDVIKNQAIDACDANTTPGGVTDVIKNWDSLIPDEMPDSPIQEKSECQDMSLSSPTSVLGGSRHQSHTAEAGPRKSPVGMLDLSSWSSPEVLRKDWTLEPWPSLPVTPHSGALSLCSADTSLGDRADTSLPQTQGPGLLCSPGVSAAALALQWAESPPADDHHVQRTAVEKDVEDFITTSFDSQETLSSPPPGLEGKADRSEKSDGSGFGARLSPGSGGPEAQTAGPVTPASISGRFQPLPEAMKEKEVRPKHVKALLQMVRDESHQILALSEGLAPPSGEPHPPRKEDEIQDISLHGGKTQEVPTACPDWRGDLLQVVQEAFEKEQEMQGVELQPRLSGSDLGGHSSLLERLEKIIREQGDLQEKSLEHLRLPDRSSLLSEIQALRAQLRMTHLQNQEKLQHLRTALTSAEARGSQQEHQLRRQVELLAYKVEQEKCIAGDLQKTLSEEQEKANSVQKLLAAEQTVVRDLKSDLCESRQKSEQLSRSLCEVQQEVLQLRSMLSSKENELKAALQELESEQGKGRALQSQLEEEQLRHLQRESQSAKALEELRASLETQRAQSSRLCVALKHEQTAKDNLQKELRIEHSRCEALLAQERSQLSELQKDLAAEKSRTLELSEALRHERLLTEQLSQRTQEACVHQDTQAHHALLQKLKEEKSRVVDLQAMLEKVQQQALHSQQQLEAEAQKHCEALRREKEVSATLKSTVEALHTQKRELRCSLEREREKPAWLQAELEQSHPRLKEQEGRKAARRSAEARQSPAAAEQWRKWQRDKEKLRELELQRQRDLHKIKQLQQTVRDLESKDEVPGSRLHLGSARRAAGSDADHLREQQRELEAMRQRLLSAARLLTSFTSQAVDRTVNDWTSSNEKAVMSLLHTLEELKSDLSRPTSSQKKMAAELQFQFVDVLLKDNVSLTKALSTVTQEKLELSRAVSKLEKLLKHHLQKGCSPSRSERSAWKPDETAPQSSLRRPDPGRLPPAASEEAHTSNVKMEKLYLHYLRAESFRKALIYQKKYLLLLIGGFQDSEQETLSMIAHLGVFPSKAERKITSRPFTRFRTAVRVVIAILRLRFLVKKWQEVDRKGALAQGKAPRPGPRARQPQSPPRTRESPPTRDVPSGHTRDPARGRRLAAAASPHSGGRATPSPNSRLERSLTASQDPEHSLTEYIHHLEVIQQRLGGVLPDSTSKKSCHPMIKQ
UniProt O14576: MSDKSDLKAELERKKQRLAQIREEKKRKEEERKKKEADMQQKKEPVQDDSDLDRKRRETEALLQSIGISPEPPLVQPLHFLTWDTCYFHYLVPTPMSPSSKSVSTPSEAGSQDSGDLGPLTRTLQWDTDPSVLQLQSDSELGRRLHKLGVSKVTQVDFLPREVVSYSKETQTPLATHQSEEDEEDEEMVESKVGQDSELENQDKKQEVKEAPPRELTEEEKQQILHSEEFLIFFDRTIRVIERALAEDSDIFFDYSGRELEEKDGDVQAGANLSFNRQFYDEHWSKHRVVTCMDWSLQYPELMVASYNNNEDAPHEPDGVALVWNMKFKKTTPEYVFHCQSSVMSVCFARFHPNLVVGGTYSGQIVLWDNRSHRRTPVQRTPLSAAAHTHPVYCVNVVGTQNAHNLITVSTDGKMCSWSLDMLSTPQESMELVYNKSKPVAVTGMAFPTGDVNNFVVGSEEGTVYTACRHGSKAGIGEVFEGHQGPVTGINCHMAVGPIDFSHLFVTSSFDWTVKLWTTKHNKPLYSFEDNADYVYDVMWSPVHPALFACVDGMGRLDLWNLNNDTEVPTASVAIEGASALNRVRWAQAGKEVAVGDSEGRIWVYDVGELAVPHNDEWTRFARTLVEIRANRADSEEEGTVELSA

Biological target: PCNT-APEX2 (endogenous PCNT C-terminally tagged with ascorbate peroxidase 2) (human (endogenous in sHeLa)) (UniProt O95613)
Test: proximity labelling

- binding: binds
Substance: dynein cytoplasmic 1 intermediate chain 1 (DYNC1I1) (from UniProt O14576 1-645)
